# Reference: PubChem BioAssay AID493014 (National Center for Advancing Translational Sciences (NCATS), 2011)
# Screen size: about 340,000 compounds; about 170 (0.05%) were called active. This list was built around the results that the source calls inconclusive (neither active nor inactive); the mix of calls is not that of the screen. Calls follow the shape of the dose curve; as a rule, active = well fitted inhibition curve with a large enough effect in the signal ratio, with a control signal flat (not every such curve was filed as active); inconclusive = small, poorly fitted or top-dose-only effect, or effect the other way, or a change in a side signal; inactive = flat fitted curve, though single readings scatter; the % refers to the signal ratio. Potencies beside an inconclusive call are fits to weak or partial responses and may not hold up.
# Experiment: qHTS Assay to Find Inhibitors of Chronic Active B-Cell Receptor Signaling;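 as to activity change, negative = inhibition: plate controls were basal doxycycline-induced cells for no effect and cells given 10 µM MG132 for full effect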
# Details: ABC-DLBCL IkBa-CBG/CBR reporter, luminescence ratio (green luciferase fused to IkBa over red control in TMD8 lymphoma cells), 4 h; activity change, negative = inhibition: at 46.1 µM (top of the series)
# Outline: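 Compounds up to 46 uM were incubated four hours with TMD8 cells whose green CBG68 luciferase is fused to IkappaBalpha; red CBR luminescence normalised the signal, and concentration-effect curves were fitted to fusion, red and ratio data.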
# Potency is read from the fitted curve at half-maximal effect.
Compound,"activity change, negative = inhibition",Potency
O=C(c1ccccc1OCc1ccccc1Br)N1CCN(c2ncccn2)CC1,inconclusive: -8.38%,
Cn1cc(C(=O)Nc2ccc3c(c2)CCC3)cn1,inconclusive: 5.42%,
O=C(NCCC(=O)N1CCNC1=O)OCc1ccccc1,inconclusive: -8.94%,
C#CCn1c(=NC(=O)c2sc3ccccc3c2Cl)sc2cc(S(N)(=O)=O)ccc21,inconclusive: -3.52%,
Cc1cc(C)c2c(N)c(C(=O)N3CCN(c4ncccn4)CC3)sc2n1,inconclusive: 15.3%,
CCOC(=O)Nc1ccc(OCc2nnc3c4ccccc4c(C)nn23)cc1,,"inconclusive: 11.2 µM [falling, partial curve, poor fit]"
Cc1cc(Cl)c2oc(C(=O)N3CCN(C4CCS(=O)(=O)C4)CC3)c(C)c2c1 (stereo not drawn),inconclusive: -10.9%,
COc1ccccc1Cn1c(=S)[nH]c2ccc(Br)cc2c1=O,inconclusive: 4.75%,
Cc1cc(O)c(C(=O)Cc2csc(C)n2)c(O)c1,,"inconclusive: 25.1 µM [falling, single point]"
O=C(CNC(=S)N(Cc1ccccc1)Cc1ccccc1F)NCc1ccc(Cl)cc1,inconclusive: 8.19%,
O=c1cccccc1NCc1ccccc1,,"inconclusive: 29.1 µM [falling, single point]"
O=C(NCc1ccc2c(c1)CCO2)Nc1cccc(C(F)(F)F)c1,inconclusive: -17.7%,
Cc1cccc2cc(C#N)c(N3CCN(C)CC3)nc12,inactive: 3.43%,
c1ccc(-c2cc(-c3nnco3)c3ccccc3n2)nc1,inactive: -0.963%,
COc1cccc(N2CC(NC(=O)c3ccc(S(=O)(=O)N4CCOCC4)cc3)CC2=O)c1 (stereo not drawn),inactive: -2.98%,
O=C(CCN1C(=O)/C(=C/c2ccc(F)cc2)SC1=S)Nc1cc([N+](=O)[O-])ccc1O,inconclusive: -10.4%,
O=C1CC(c2cccc([N+](=O)[O-])c2)c2cc3c(cc2N1)CCC3 (stereo not drawn),,"inconclusive: 17.8 µM [falling, partial curve, poor fit]"
COc1ccc(NC(=S)N(CCC(C)C)C(C)c2ccncc2)cc1 (stereo not drawn),inactive: 0.373%,
Nc1ccc2nc(-c3cccs3)[nH]c2c1,,"inconclusive: 10.3 µM [falling, partial curve]"
CC(=O)/C(=C/N(C)C)Sc1ccc(C)cc1,inconclusive: -14.7%,
Cc1c(Cl)ccc2c(C(=O)NC(C)c3ccncc3)cc(-c3ccncc3)nc12 (stereo not drawn),inconclusive: -5.26%,
Cn1c(=O)cc(OCCCC(=O)NC2CCCC2)c2ccccc21,inconclusive: 2.16%,
CCc1ccc(CN2CCCC(C(=O)Nc3ccccc3-c3ccc(OC)cc3)C2)o1 (stereo not drawn),inconclusive: 7.95%,

# 2 records drawn at random from those above, as already listed:
Compound,"activity change, negative = inhibition",Potency
C#CCn1c(=NC(=O)c2sc3ccccc3c2Cl)sc2cc(S(N)(=O)=O)ccc21,inconclusive: -3.52%,
O=c1cccccc1NCc1ccccc1,,"inconclusive: 29.1 µM [falling, single point]"
